Results are given in words; binding and its absence hold for the method and conditions named. Some binding calls cover weakened binding; strength is not graded here. For some assays here: Tags and fused reporters may be left off the sequences shown.
Legend:
[1] = molecular target: T1, rGST-ShTNF-α (pGEX-6p-1-ShTNF-α, E. coli BL21) (羊 (sheep)) (UniProt P23383); test: Western blot with HRP-3C1 1:1000
T1 sequence (looked up): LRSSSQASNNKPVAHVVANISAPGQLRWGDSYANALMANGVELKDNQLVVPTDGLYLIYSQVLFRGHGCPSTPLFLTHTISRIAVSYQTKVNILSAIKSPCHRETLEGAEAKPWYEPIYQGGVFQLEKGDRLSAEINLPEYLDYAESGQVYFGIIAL

[2] = molecular target: T2, rHis-ShTNF-α (pET-30a(+)-ShTNF-α, E. coli BL21(DE3)) (羊 (sheep)) (UniProt P23383); test: Western blot with HRP-3C1 1:1000
T2 sequence (looked up): T1 sequence (looked up)

[3] = molecular target: T3, ShTNF-α (英国Abcam公司, ab184579) (羊 (sheep)) (UniProt P23383); test: indirect ELISA, protein coated at 0.5μg/mL, 3C1 hybridoma supernatant
T3 sequence (looked up): T1 sequence (looked up)

[4] = molecular target: T4, 真核表达的牛TNF-α蛋白 (Hela(pCMV-Myc-BoTNF-α)) (牛 (bovine)) (UniProt Q06599); test: direct immunofluorescence on methanol-fixed transfected Hela cells, FITC-3C1 1:1000
T4 sequence (looked up): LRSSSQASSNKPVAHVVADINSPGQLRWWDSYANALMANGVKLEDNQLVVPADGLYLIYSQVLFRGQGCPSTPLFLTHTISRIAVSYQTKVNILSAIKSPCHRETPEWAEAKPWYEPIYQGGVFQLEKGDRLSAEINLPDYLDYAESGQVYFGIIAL

[5] = molecular target: T5, 真核表达的羊TNF-α蛋白 (Hela(pCMV-Myc-ShTNF-α)) (羊 (sheep)) (UniProt P23383); test: as above
T5 sequence (looked up): T1 sequence (looked up)

Measured: binding

B1: 单克隆抗体3C1 (具牛、羊交叉反应的抗TNF-α单克隆抗体, 杂交瘤 CCTCC NO:C2019129) (antibody, V domains shown)
VH: QVQLKQSGPGLVQPSQSLSITCTVSGFSLTNFSVHWVRQPPGKGLEWLGVMWSGGSTDYNAAFISRLSIIKDNSKSQVFFKMNGLQADDTAIYYCARSGPYYYSLDYWGQGTSVTVSS
VL: DIQMTQSPASLSASVGETVTITCRASENIYIYLAWYQQKQGKSPQLLVYNAKTLAEGVPSRFSGSGSGTQFSLNINSLQPEDFGSYYCQHHYGTPWTFGGGTKLEIK
binds: all assays above
